In the assay the test system is maize (Zea mays, variety “LORENZO”). The experiment in a line: Root growth assay, maize seed treatment. It is filed as in vivo. To be noted: Root Growth of 100 is set as the standard, wet root weight 16 days post treatment. From the text: Plant roots are a highly proliferative tissue that allows an easy accessible, cheap and short term screening method for plant growth regulators. The results obtained can easily be transferred to the overall effects on a plant of plant growth regulators identified by such a system. By using this root assay one is enabled to determine the effect of a seed treatment to root growth and/or germination and/or changes in habitat of germinated plants in order to identify the possible use as a yield enhancer. Two seeds of wheat (Triticum aestivum, variety “TRISO”) or 1 seed of maize (Zea mays, variety “LORENZO”) per hole in a plastic tray which contains an architecture of 8×13 holes were placed on compost soil covered with sand. These seeds were treated with 100 μl/hole, which creates an application volume of approx. 1200 l/ha, of a compound solution at active ingredient rates equivalent to 100, 10 and 1 g a.i./ha of each compound using an robotic application system (Lizzy Spray Robotics). Six replicates in a row of each compound and concentration were done. The outer rim of the above defined plastic tray was untreated to avoid false negative effects and the middle row (No. 7) was used as untreated control. The treated seeds were allowed to dry for approx. 4 hours and subsequently covered with sand and watered. The trays were stored in climate chambers with 14 hours lighting at a temperature of 24° C. (±2) at daytime and 16° C. (±2) at night and relative humidity (rH) of 60% and daily watered. Assessments were done 16 (±2) days post treatment by counting the germinated plants and assessing the phytotoxicity symptoms and percentage. In addition, the roots were washed out and the shoots were cut directly above the seed and the wet roots were placed on dry paper towels for approximately 30 minutes and weighted afterwards. This procedure provides a similar grade of moisture to the roots so that a comparison of the weights is possible. […]

The values that follow come from patent US7767664B2, “Plant growth regulation” (Bayer CropScience AG, priority 2004, dated 2010).

Regarding `O=C1Cc2c([nH]c3cc(Cl)cc(Cl)c23)-c2ccccc2N1` [Compound 1.8], the “Root Growth” value by setting is: (1 g a.i./ha) 112; (10 g a.i./ha) 78; (100 g a.i./ha) 115.
